Measurements reported in PubChem BioAssay AID504793 (Drosophila RNAi Screening Center, 2011).
The screen tested about 23,000 reagents; below is a random part of those with a known target gene and a result. Over the whole deposit, 62 (0.27%) got an active call. 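Calls come from follow-up tests whose scores are not deposited, so confirmed genes may have low counts here; counts are not normalised per plate.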 Raw values are not corrected between plates. Reagents against one gene are numbered here. No sequences are given here.

Aim: 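Knock-downs allowing continued mitosis even though DNA is damaged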 (primary screen)
System: Drosophila S2R+ cells
Reagent: long dsRNA against Drosophila genes, about 0.25 µg dsRNA per well
Timing: 4 days of dsRNA, then 4 hours of drug before read-out
Treatment: doxorubicin 0.5 µM for 4 hours to cause double-strand breaks, in cells also given a low, harmless dose of dsRNA against nbs to sensitise the assay
Measurement: 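Per-well count of mitotic cells stained for phospho-histone H3 after doxorubicin exposure, used as mitotic index; counts are raw and not normalised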
Scale: mitotic cells: higher = more cells in mitosis, weaker G2 arrest
Active means: 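Genes are called active only when high mitotic counts were reproduced with independent dsRNAs and mitosis was checked for delay without damage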
Meaning of the calls: active = confirmed in follow-up tests; inactive = not confirmed

Drs #1 — mitotic cells, replicate 1 = 8; call = inactive
Drs #2 — mitotic cells, replicate 1 = 6; call = inactive
CG12551 (retired record) #1 — mitotic cells, replicate 1 = 6; call = inactive
CG12551 (retired record) #2 — mitotic cells, replicate 1 = 3; call = inactive
CG12551 (retired record) #3 — mitotic cells, replicate 1 = 2; call = inactive
CG12551 (retired record) #4 — mitotic cells, replicate 1 = 3; call = inactive
CG1354 — mitotic cells, replicate 1 = 7; call = inactive
Taf10b — mitotic cells, replicate 1 = 10; call = inactive
GstD11 #1 — mitotic cells, replicate 1 = 7; call = inactive
GstD11 #2 — mitotic cells, replicate 1 = 7; call = inactive
PIG-U #1 — mitotic cells, replicate 1 = 11; call = inactive
PIG-U #2 — mitotic cells, replicate 1 = 3; call = inactive
CG6607 — mitotic cells, replicate 1 = 14; call = inactive
TwdlE #1 — call = inactive
TwdlE #2 — mitotic cells, replicate 1 = 12; call = inactive

As entered above:
Entry of PIG-U #2 in “call”: inactive
For “mitotic cells, replicate 1”, CG12551 (retired record) #2 is entered as 3
